Measured values as given in article PMC7771113 (International Journal for Parasitology: Drugs and Drug …, 2020).
Where two headings read alike, the source gives them in different places.

Columns and labels:
[1] = tested on: T. gondii RH strain (type I) tachyzoites; test: Antiproliferative assay, tachyzoites of RH strain in LLC-MK2 cells; format: cell-based; details: Toxoplasma gondii
T. gondii = details: read-out: IC50 against T. gondii; ref Strobl et al., 2007; cited from earlier work
NDHF fibroblasts = test: Cytotoxicity assay in host cells; format: cell-based, Human; details: CC50 in NDHF after 120 h
[2] = tested on: T. gondii EGS strain (atypical, I/III); test: Antiproliferative assay, tachyzoites of EGS strain; format: cell-based; details: Toxoplasma gondii, 48 h

In the case of `O=C(CCCCCCC(=O)Nc1ccccc1)NO` [SAHA, Suberoylanilide Hydroxamic Acid], the IC90 ([1]; LLC-MK2) is reported as 200 nM, the IC50 ([1]; LLC-MK2, 24 h) is reported as 41 ± 3 nM and the IC50 ([1]; LLC-MK2, 48 h) is reported as 67 ± 36 nM. The IC50 ([1]; LLC-MK2, 48 h, read-out: T. gondii RH IC50) was 70 nM, the IC50 (T. gondii) was 83 nM and the “CC50 times higher than the IC50 obtained for T. gondii” value (NDHF fibroblasts) was 97 times. The IC50 [2] was 44 ± 11 nM and the IC50 ([2]; read-out: T. gondii EGS IC50) was 40 nM.
